Results deposited as PubChem BioAssay AID1259308 (NCATS, 2017).

Assay: 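Candidate targets for better recombinant protein yield in mammalian cells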 (primary screen)
Cell system: human HEK293 embryonic kidney cells stably expressing firefly luciferase (HEK-CMV-Luc2-Hygro)
Reagent: single siRNA against human genes, 0.8 pmol siRNA per well
Timing: 72 h
Read-out: 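Reporter luminescence and viable-cell signal on separate replicate plates, given as percent of non-targeting control and median/MAD z-scores, plus per-cell luciferase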
Reading the numbers: total luciferase, z-score and total luciferase, % of control: higher = more reporter protein produced; luciferase per cell, z-score: higher = more reporter output per viable cell
Call rule: 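An siRNA counts as active if its total luciferase robust z-score exceeds 3; genes with two or more such siRNAs out of three were retested with fresh siRNAs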
Calls: active = raised luciferase; inactive = no rise
In all, the deposit lists about 59,000 reagents; shown is an unselected part. Over the whole deposit, about 1,510 (2.6%) were called active. 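Calls use total luciferase alone and ignore viability, so some active siRNAs may act by altering cell number.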 The numbers tell different reagents against one gene apart. Not all columns of the deposit are shown. Reagent sequences are not shown.

no.	target	reagent no.	total luciferase, z-score	total luciferase, % of control	luciferase per cell, z-score	Outcome
1	PIM2	1	4.66	174	3.5	active
2	PIM2	2	-0.837	65.2	0.101	inactive
3	PIM2	3	-0.106	79.8	-0.234	inactive
4	GPR137	1	4.05	162	3.3	active
5	GPR137	2	0.0317	82.5	-0.0675	inactive
6	GPR137	3	1.5	112	0.883	inactive
7	GPR22	1	0.755	96.9	0.586	inactive
8	GPR22	2	0.00213	81.9	-0.298	inactive
9	GPR22	3	-0.857	64.9	-1.61	inactive
10	DCP1A	1	1.12	104	1.13	inactive
11	DCP1A	2	1.89	120	1.26	inactive
12	DCP1A	3	2.84	138	1.44	inactive
13	PPP3CB	1	2.11	124	2.32	inactive
14	PPP3CB	2	-1.54	51.3	-2.23	inactive
15	PPP3CB	3	0.0697	83.3	-0.232	inactive
16	PLK3	1	-0.00847	81.7	-0.652	inactive
17	PLK3	2	-0.94	63.2	-1.28	inactive
18	PLK3	3	-0.806	65.9	-0.107	inactive
19	FBXL3	1	1.15	105	0.327	inactive
20	FBXL3	2	-1.66	48.8	-2.08	inactive
21	FBXL3	3	0.124	84.3	0.623	inactive
22	VPS51	1	1.03	102	1.31	inactive
23	VPS51	2	-1.23	57.5	-0.382	inactive
24	VPS51	3	0.015	82.2	-0.344	inactive

2 neighbouring records from above:
no.	target	reagent no.	total luciferase, z-score	total luciferase, % of control	luciferase per cell, z-score	Outcome
12	DCP1A	3	2.84	138	1.44	inactive
13	PPP3CB	1	2.11	124	2.32	inactive
